## Screening data, single-dose tests

By UniProt entry, the sequences of proteins in these tests, tags left out. Residues count along the entry.
UniProt A4I591, 1-473: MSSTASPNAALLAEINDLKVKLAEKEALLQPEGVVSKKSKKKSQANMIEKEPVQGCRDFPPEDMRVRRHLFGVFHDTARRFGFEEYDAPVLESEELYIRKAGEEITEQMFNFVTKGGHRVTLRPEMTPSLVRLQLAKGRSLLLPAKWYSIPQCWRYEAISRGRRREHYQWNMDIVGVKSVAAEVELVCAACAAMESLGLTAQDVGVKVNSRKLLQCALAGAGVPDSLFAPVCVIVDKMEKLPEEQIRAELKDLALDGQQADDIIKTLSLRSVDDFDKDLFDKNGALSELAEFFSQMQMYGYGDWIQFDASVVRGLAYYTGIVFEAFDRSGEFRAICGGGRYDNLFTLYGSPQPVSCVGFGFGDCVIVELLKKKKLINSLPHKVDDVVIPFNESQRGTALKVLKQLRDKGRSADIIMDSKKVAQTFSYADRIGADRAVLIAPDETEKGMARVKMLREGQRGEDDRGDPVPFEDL
UniProt P9WPC5, whole entry: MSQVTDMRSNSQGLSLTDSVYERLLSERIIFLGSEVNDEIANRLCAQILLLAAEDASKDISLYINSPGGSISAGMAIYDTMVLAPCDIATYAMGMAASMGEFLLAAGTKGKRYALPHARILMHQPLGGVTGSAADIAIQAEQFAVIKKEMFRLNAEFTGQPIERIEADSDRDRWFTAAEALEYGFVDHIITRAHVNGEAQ
UniProt P9WPC3, whole entry partner: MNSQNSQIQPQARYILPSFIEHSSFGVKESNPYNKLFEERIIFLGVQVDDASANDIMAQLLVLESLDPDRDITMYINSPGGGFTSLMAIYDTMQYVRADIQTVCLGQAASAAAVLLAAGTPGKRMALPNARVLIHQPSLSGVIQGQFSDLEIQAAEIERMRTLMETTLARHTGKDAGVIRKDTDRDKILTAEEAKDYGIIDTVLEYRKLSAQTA

LiHisRS: 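Histidine-tRNA ligase, Leishmania infantum (UniProt A4I591). Enzyme assay of histidyl-tRNA synthetase; the read-out is not stated. Tested at 30 µM. Higher reads as stronger inhibition (inferred: compounds with an IC50 in retests scored well above the rest). The assay is labelled LdHisRS but filed under L. infantum. Size under these conditions: about 69,000 compounds, about 410 of them at 50% or above in at least one test.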
Toxoplasma: 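Assay of Toxoplasma gondii numbers, read through their beta-galactosidase reporter with a colour substrate. Concentration: 10 µM. The record gives no direction; the compounds picked for IC50 retests had high values, so higher reads as fewer parasites. About 67,000 compounds were tested under these conditions; 0.38% (about 260) showed 50% or more at least once.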
ClpP1P2: 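ClpP1P2, Mycobacterium tuberculosis (UniProt P9WPC5 and UniProt P9WPC3). Protease assay of ClpP1P2, read by the AMC dye that it sets free. Tested at 50 µM. Higher reads as stronger inhibition, judged from the few compounds that gave an IC50. Most other retested compounds had strongly negative values. Of about 69,000 compounds tested this way, about 10 (0.015%) reached 50% or more in at least one test.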
T. brucei: 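Whole-parasite assay of Trypanosoma brucei over 72 hours; the read-out is not stated. Compounds at 30 µM. Higher reads as stronger inhibition (inferred: compounds with an IC50 in retests scored well above the rest). Values scatter widely below zero; nearly all retest evidence comes from the higher of the two concentrations used. About 64,000 compounds were tested under these conditions; 1.5% (about 940) showed 50% or more at least once.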
Leishmania in macrophages: 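Cell assay of Leishmania donovani living inside macrophages; the read-out is not stated. Tested at 30 µM. The record gives no direction; compounds that gave an IC50 in retests scored well above the rest, so higher reads as stronger inhibition. Of about 69,000 compounds tested this way, about 1,000 (1.5%) reached 50% or more in at least one test.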

Each number is a percent effect as filed.
The record does not define 0% and 100%; most values in the screen are far below 50% and negative numbers occur (in some assays of this library far below -100).
The compounds are a random part of those screened.
A dash means the value is not listed here; it may have been measured.

| SMILES | LiHisRS | Toxoplasma | ClpP1P2 | T. brucei | Leishmania in macrophages |
|---|---|---|---|---|---|
| `CC1c2ncc(CNC(=O)C3CC3)n2CCN1Cc1ccccn1` (configuration not stated) | 6.944% | - | -11.75% | - | - |
| `CCc1cc(C(=O)NCC2CCN(Cc3cccc(C)n3)C2)on1` (configuration not stated) | 14.29% | -0.7052% | 1.649% | -4.012% | 24.42% |
| `CC(CC#N)N(C)Cc1ccccc1F` (configuration not stated) | 5.128% | 12.49% | -16.99% | -8.307% | 3.197% |
| `Cn1c(Cn2ccnc2)nnc1C1CCN(C(=O)c2ccoc2)CC1` | 15.96% | -5.818% | 13.19% | -54.55% | 43.22% |
| `CCc1nc(C2CCCN2C(=O)c2c[nH]c(C)n2)no1` (configuration not stated) | 22.97% | 7.073% | 0.7976% | -46.26% | -8.195% |
| `Cc1cc(N2CCC(n3cc(CN4CCNCC4)nn3)CC2)ccn1` | 23.26% | 4.619% | -13.96% | -13.46% | -19.94% |
| `Cc1ccccc1CN1C[C@@H]2OCC(=O)N(CC(N)=O)[C@@H]2C1` | 27.03% | - | -8.565% | - | - |
| `COCCOCC(=O)NC(C#N)c1c(F)cccc1Cl` (configuration not stated) | -8.511% | -2.804% | -3.812% | -61.34% | -19.68% |
| `COCc1ccccc1NC(=O)[C@@H]1CCCN1C(=O)c1ccco1` | 6.731% | 6.688% | -12.43% | 5.535% | 2.646% |
| `CCC(C)c1noc(C2CCN(C(=O)c3cccnc3)CC2)n1` (configuration not stated) | 16.04% | 3.486% | -0.4394% | -32.45% | 18.62% |
| `Cc1ccc(CN2CCC(n3cc(CN4CCC(O)CC4)nn3)CC2)s1` | -72.73% | 1.737% | -5.84% | 16.72% | -5.668% |
| `N#Cc1ccc(SCCOCCO)c(Cl)c1` | 4.386% | -18.45% | -5.619% | -10.13% | -12.21% |
| `CS(=O)(=O)NCC1CCCN(C(=O)Nc2ccccc2N2CCCC2)C1` (configuration not stated) | 5.319% | -6.364% | 8.739% | -45.52% | 22.14% |
| `CN(C)C(=O)CCC[S+]([O-])Cc1ccc(Cl)c(Cl)c1` (configuration not stated) | 6.667% | 9.503% | 6.395% | 0.8551% | 19.98% |
| `COc1ccc(CCn2cnnc2[S+](C)[O-])cc1` (configuration not stated) | 15.05% | -10.26% | -6.911% | -5.686% | 15.43% |
| `CC(C)CN(CCc1ccccc1)Cc1nc2c(cnn2C)c(=O)[nH]1` | 15.79% | -18.65% | 2.343% | 21.99% | -5.461% |
| `CCN(CC)c1ccc(NC(=O)NC(C)Cn2cccn2)cn1` (configuration not stated) | 18.18% | -20.35% | 4.61% | -14.56% | 24.46% |
| `Nc1cccnc1N1CCC(O)CC1` | 12.5% | -14.29% | -4.271% | - | 0.4601% |
| `CC(C)(C)c1cc(=O)[nH]c(-c2ccccc2CN2CCCCCC2)n1` | -17.95% | -14.91% | -6.068% | - | 5.194% |
| `COC(=O)C1=C(C)N=C2SCC(=O)N2C1c1cn(C)nc1C` (configuration not stated) | 11.5% | 15.26% | -25.76% | 1.918% | 24.99% |
| `CN1CC(=O)N(c2ccccc2)CC12CCN(CCO)C2.O=C(O)C(F)(F)F.O=C(O)C(F)(F)F` (configuration not stated) | - | -1.898% | - | -9.086% | 24.71% |
| `Cc1nn(C)c(C)c1NC(=O)c1cccc(CN2C[C@H]3CC[C@@H](C2)N3)c1` | 18.48% | - | 4.113% | - | - |
| `Cc1nc(CN2CCCN(CCOc3cccc(C#N)c3)CC2)no1` | 22.73% | -6.089% | 11.72% | -84.16% | 3.874% |
| `Nc1ncc(CN2CCC(O)(c3ccccc3F)CC2)cn1` | 5.797% | -18.16% | -13.61% | -5.013% | 12.35% |
| `COCCN(Cc1sccc1C)C(=O)C1CCN(C(C)C)CC1` | 22.22% | -1.747% | -4.871% | -3.027% | -7.435% |
| `CCC1CCCCN1C(=O)Cn1nc(-c2ccc(C)o2)cc(N)c1=O` (configuration not stated) | 5.634% | 4.369% | -6.644% | -3.359% | 12.83% |
| `CN1CCOC(CNCc2ccc(OCc3ccccn3)cc2)C1` (configuration not stated) | 14.29% | -17.7% | -1.501% | 56.06% | 31.92% |
| `O=C(O)C(F)(F)F.O=C(O)C(F)(F)F.[H][C@@]12C[C@@H](C(=O)NCC3CC3)C[C@@]1([H])N(Cc1cccnc1)CCO2` | - | 0.641% | - | -20.98% | -19.13% |
| `CN1N=C(C(=O)N2CCCC(CCc3ccccc3F)C2)CCC1=O` (configuration not stated) | 14.4% | 5.942% | -20.18% | -24.18% | 28.48% |
| `CCN1CCC(NC(=O)CN2CCc3c(ncn3C3CC3)C2)CC1` | 15.38% | 10.05% | -31.56% | - | 20.81% |
| `COc1ccc(CN(CCC#N)CCN2CCOCC2)c(OC)c1` | -1.099% | -1.041% | -9.537% | -19.74% | -1.646% |
| `CCc1nccn1CCC(=O)N1CCCC1c1ccc(F)cc1` (configuration not stated) | 3.333% | -7.908% | 5.991% | -49.96% | -0.03088% |

Measurements from “University of Dundee, Small-Polar-MMV Screening Library” (2021), ChEMBL document CHEMBL3988442.